Measured values taken from publication doi:10.1101/2024.10.17.618965.

Amino acid sequences for entries named in this document (tags omitted). A change or cut given only in a name is not applied to a line headed by its entry.
UniProt O95835: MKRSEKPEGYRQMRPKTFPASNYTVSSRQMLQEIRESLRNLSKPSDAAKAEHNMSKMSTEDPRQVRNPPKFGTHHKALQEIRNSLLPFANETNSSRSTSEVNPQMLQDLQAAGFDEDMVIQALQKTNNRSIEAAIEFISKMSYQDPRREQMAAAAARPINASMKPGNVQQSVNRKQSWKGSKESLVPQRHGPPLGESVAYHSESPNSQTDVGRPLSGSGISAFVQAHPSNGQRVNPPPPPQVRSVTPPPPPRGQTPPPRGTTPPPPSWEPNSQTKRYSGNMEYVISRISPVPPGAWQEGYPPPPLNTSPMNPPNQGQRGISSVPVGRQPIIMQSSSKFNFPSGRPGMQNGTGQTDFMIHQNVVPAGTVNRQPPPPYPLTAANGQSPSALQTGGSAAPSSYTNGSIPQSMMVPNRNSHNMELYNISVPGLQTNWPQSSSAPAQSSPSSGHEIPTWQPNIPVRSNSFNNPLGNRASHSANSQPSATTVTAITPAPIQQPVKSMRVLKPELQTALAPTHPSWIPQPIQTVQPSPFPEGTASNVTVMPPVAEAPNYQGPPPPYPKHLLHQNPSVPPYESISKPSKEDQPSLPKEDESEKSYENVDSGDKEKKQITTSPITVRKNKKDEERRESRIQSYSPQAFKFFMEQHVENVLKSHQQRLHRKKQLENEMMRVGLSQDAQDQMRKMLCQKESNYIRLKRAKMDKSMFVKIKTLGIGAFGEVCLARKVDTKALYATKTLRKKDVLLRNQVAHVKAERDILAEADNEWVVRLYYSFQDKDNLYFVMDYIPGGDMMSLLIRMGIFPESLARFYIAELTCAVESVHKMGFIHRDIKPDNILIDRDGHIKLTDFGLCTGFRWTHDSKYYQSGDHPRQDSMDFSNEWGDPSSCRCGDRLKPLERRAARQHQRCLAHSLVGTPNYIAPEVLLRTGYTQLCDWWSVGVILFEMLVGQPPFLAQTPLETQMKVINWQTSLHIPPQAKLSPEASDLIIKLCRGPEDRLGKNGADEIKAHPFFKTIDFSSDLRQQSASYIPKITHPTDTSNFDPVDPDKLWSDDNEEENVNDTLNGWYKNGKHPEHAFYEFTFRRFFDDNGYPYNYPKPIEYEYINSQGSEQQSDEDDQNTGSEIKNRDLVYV
UniProt Q9UDY2: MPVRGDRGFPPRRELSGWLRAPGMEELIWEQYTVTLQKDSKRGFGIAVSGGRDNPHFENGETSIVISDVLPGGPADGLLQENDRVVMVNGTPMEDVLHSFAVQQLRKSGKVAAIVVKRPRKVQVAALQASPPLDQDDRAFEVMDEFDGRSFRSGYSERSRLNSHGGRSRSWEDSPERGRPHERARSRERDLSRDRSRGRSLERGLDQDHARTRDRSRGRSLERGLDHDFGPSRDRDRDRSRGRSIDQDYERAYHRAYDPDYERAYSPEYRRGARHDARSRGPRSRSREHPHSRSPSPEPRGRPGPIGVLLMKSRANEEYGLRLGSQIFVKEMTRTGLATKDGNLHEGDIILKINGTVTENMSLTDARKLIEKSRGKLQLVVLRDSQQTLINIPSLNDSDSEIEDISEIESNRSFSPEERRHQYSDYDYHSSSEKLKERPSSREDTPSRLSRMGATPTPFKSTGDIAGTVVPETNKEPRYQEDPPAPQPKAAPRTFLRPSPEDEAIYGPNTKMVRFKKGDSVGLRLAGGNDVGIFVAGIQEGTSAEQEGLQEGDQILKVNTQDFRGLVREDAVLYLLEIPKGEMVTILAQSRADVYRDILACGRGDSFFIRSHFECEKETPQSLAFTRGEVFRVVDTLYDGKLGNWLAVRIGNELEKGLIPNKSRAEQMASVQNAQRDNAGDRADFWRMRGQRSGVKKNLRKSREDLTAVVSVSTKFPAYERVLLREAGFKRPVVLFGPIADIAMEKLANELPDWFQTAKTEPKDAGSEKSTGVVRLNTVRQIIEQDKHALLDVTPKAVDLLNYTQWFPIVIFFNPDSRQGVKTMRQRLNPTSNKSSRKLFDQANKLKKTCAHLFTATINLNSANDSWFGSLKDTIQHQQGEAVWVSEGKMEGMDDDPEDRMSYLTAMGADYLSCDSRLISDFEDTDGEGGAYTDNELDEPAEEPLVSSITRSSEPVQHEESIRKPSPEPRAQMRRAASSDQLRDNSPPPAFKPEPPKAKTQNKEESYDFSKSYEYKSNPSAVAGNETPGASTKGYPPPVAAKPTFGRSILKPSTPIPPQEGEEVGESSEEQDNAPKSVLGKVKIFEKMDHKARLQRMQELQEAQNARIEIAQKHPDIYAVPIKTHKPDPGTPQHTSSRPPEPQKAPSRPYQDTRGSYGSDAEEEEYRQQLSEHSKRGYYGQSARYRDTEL

Assays:
Assay in all cases: co-IP
[1] = target: FLAG-LATS1 P456A P459A (human) (UniProt O95835)
[2] = target: FLAG-LATS1 P247A P250A (human) (UniProt O95835)
[3] = target: FLAG-LATS1 R3A K6A (human) (UniProt O95835)

Measured: binding

full-length HA-ZO-2 (human ZO-2 in pXJ40) (from UniProt Q9UDY2 1-1190)
no binding: [1] | [2] | [3]

Results are given in words; binding and its absence hold for the method and conditions named. In cells and extracts the contact can be indirect.
